PubChem BioAssay AID652272 | Drosophila RNAi Screening Center – 2013
In all, the deposit lists about 21,000 reagents; below is a random part of those that have a named target and a result. Over the whole deposit, 503 (2.4%) are marked active. 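Raw plate light values, not normalised; calls rest on replicate z-scores that were not deposited; hits include reporter decreases as well as increases.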 The numbers tell different reagents against one gene apart. Not given: the amount of reagent, the time to read-out.

Aim: 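Genome-wide knock-down search for components of Hedgehog signalling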 (primary screen)
Cells: Drosophila clone 8 (Cl8) cells
Knock-down reagent: long dsRNA against Drosophila genes
Measured: 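Firefly light from a Hedgehog-responsive ptc promoter reporter and Renilla reference light, both read on a plate reader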
Direction: firefly Hh reporter signal: higher = more ptc reporter light; Renilla reference signal: higher = more Renilla control light
Rule for the call: 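Hit when the z-score averaged over two replicates is under -2 or over +3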
Meaning of the calls: active = hit: reporter lowered or raised; inactive = not a hit

target | reagent | firefly Hh reporter signal, replicate 1 | firefly Hh reporter signal, replicate 2 | firefly Hh reporter signal, replicate 3 | Renilla reference signal, replicate 1 | Renilla reference signal, replicate 2 | activity call
Pli (GeneID 42821) | 1 | 1.31e5 | 81242 | – | 5187 | 2649 | inactive
CG8112 (GeneID 41033) | 1 | 73320 | 1.40e5 | – | 2939 | 18512 | inactive
Mic26-27 (GeneID 41959) | 1 | 1.77e5 | 93074 | – | 6765 | 3883 | inactive
CG6567 (GeneID 41304) | 1 | 50477 | 79059 | – | 1355 | 2093 | inactive
t-cup (GeneID 318986) | 1 | 5.82e5 | 2.28e5 | – | 23595 | 11859 | inactive
CG1246 (GeneID 38330) | 1 | 64023 | 71380 | – | 2208 | 5106 | inactive
cv (GeneID 44510) | 1 | 65801 | 2.16e5 | – | 2346 | 8368 | inactive
Dronc (GeneID 39173) | 1 | 1.32e5 | 90603 | – | 5658 | 2699 | inactive
CG31954 (GeneID 33572) | 1 | 77770 | 47008 | – | 3977 | 2090 | inactive
fd19B (GeneID 33010) | 1 | 1.65e5 | 4.34e5 | – | 6745 | 14997 | inactive
ph-p (GeneID 31181) | 1 | 1.21e5 | 3.01e5 | – | 4632 | 10592 | inactive
ERp60 (GeneID 36270) | 1 | 69766 | 64331 | – | 2466 | 2699 | inactive
ND-39 (GeneID 40272) | 1 | 89136 | 81789 | – | 3264 | 2885 | inactive
l(2)k10201 (GeneID 48373) | 1 | 1.35e5 | 66443 | – | 3330 | 5717 | inactive
l(2)k10201 (GeneID 48373) | 2 | 1.09e5 | 54736 | – | 2515 | 4650 | inactive
emei (GeneID 39250) | 1 | 18084 | 86013 | 5.34e5 | 9554 | 2758 | inactive
CG7985 (GeneID 42178) | 1 | 1.42e5 | 1.33e5 | – | 6100 | 5074 | inactive
CG1941 (GeneID 35718) | 1 | 82070 | 45864 | – | 1812 | 3468 | inactive
CG3594 (GeneID 37964) | 1 | 1.62e5 | 72209 | – | 6250 | 2230 | inactive
CG13476 (GeneID 39602) | 1 | 98464 | – | – | 2032 | 2616 | inactive
CG34330 (GeneID 2768869) | 1 | 1.14e5 | 2.76e5 | – | 2384 | 11510 | inactive
CG17475 (GeneID 42069) | 1 | 51707 | 81009 | – | 1450 | 1752 | inactive
CG1671 (GeneID 36019) | 1 | 52512 | 59585 | – | 2529 | 2548 | inactive
